In paper PMC11343458, “Extracellular proteolysis of tandemly duplicated pheromone propeptides affords additional complexity to bacterial quorum sensing” (PLOS Biology, 2024):
These are yes or no findings as the source states them, for the method shown. For part of these data: Binding can be weak; no strength is given.

Tests used:
[1] = target: Rap^3T (Bacillus phage phi3T); assay: crystal structure; sitting drops at 21°C, protein at 10 mg/ml, glycerol ethoxylate/tetrahydrofuran conditions; both purified
[2] = target: Rap^105 (Bacillus phage phi105); assay: as above
[3] = target: Rap^3T (Bacillus phage phi3T); assay: thermal shift assay; Sypro Orange, 50 μm protein, 100 μm synthetic peptide, 20 mM Tris (pH 8), 250 mM NaCl (or filtered supernatant in the maturation assays), heated from 20 to 85°C; both purified

Row | Binder | binding [1] | binding [2] | binding [3]
1 | RGHTS | binds | – | –
2 | RRGHTA | binds | – | –
3 | RRGHTAS | binds | – | –
4 | ERPVGT | – | binds | no binding (tested: 100 μm)
5 | SRGHTS | binds | – | –
